At least one structure is not confirmed: it was looked up by name or label, or the drawing left a doubt.
Biological target: T1, 31-O-desmethylimmunomycin O-methyltransferase (DIMT) (Streptomyces hygroscopicus, UniProt Q9KID5)
T1 construct: about 32 kDa; monomer by gel filtration
T1 sequence (Q9KID5 1-260): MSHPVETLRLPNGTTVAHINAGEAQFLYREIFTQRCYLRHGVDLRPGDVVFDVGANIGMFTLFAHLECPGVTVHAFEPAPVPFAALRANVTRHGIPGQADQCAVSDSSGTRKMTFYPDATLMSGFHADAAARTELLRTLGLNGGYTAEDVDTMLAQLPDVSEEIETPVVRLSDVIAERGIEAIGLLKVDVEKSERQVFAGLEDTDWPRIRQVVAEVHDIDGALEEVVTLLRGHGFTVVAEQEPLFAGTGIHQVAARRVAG
Experiment: S-adenosyl-L-methionine:31-O-desmethylimmunomycin O-methyltransferase (DIMT) assay
Assay type: biochemical, Streptomyces hygroscopicus var. ascomyceticus
Settings: SAM variable substrate, 25 umM 31-O-desmethylimmunomycin cosubstrate; Lineweaver-Burk
Description: The assay was carried out in 1 ml. mixture containing 0.025 mM 31-desmethylimmunomycin, 1 mM MgSO4 and different quantities of the enzyme source in 50 mM phosphate buffer, pH 7.5. Reaction was initiated by the addition of 1 nmole of ^14 C-SAM (S-adenosyl-L-[methyl-^14 C] methionine with the specific activity of 46 mCi/mmole. Incubation of the complete mixture was carried out at 34° C. for 20 minutes and the reaction was terminated by the addition of ethyl acetate. Product of the reaction was extracted with 2 ml of ethyl acetate and 1 ml of the extract was used for TLC and HPLC analysis. For the analysis of the radioactive reaction product (immunomycin), the ethyl acetate extract was spiked with the standard immunomycin and subjected to the TLC with a plate having plastic support. The plastic sheet was developed in chloroform:methanol (9:1) and area showing standard immunomycin under UV-light was cut and the radioactivity in the cut-strip was measured. The amount of the product formed was calculated from the measured radioactivity. For the HPLC analysis of the product of the enzyme reaction, several enzymatic reaction mixtures were pooled and the extract was subjected to the TLC analysis as above. […] One milliliter fractions were collected and a portion of each fraction was examined for the radioactivity. […]

Compound: C[S+](CC[C@H](N)C(=O)O)C[C@H]1O[C@@H](n2cnc3c(N)ncnc32)[C@H](O)[C@@H]1O (stereo partly drawn) [SAM, S-adenosyl-L-methionine]
- Vmax of DIMT: 100 nmol/h/mg

Source: patent US5149701A, “C-31 methylated FR-900520 cyclic hemiketal immunosuppressant agents” (Merck & Co., Inc., priority 1991, dated 1992)
